In paper PMC12151148:
No constants are given. Whether binding was seen depends on the method and setting. A result given as binding can be weak or reduced; the word gives no strength. Sequences can lack the tags named with a protein.

Molecular target: T1, NuMA (1808–2001) of the GST pull-down (human) (UniProt Q14980)
T1 sequence: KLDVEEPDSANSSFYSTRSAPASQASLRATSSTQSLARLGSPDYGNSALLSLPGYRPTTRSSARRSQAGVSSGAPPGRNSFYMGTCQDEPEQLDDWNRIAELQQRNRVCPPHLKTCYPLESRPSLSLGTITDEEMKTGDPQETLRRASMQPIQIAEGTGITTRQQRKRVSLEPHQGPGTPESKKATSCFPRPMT
Assay: pull-down; GST-tagged protein (4 μM) on GSH-Sepharose 4B; partners (8 μM; AGS3-L and LGN-TPR at various concentration ratios); 50 mM Tris (pH 8.0), 100 mM NaCl, 1 mM 2-mercaptoethanol, 1 mM EDTA; 1 h at 4°C; Coomassie staining; both purified

Row | binding | Substance
1 | binds | AGS3-L (−23–405) (mouse) (domain or fragment)
2 | binds | LGN-TPR (1–409) (mouse) (domain or fragment)
